# Test results as given in PubChem BioAssay AID504467 (National Center for Advancing Translational Sciences (NCATS), 2011).
# Hit rate of the full screen: of about 330,000 compounds, about 7,700 (2.3%) were called active. The inconclusive results got no clear call from the source; some entries with a clear call stand among them for comparison. Calls follow the shape of the dose curve; as a rule, active = well fitted inhibition curve with a large enough effect; inconclusive = small, poorly fitted or top-dose-only effect, or effect the other way; inactive = flat fitted curve, though single readings scatter. Potencies beside an inconclusive call are fits to weak or partial responses and may not hold up.
# Test: qHTS screen for small molecules that inhibit ELG1-dependent DNA repair in human embryonic kidney (HEK293T) cells expressing luciferase-tagged ELG1; also: nearly all actives have a fitted effect of over 55% in size
# Details: HEK293T ELG1-luciferase reporter, luminescence, 16 h, DNA damage induced by 5-fluorouridine; series mostly up to 46.1 µM
# Outline: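 Overnight (16 hr) co-exposure of 2,000 cells/well to 5-fluorouridine and compound at 37 °C preceded detection. Luciferase was quantified via ONE-Glo luminescence; loss of signal denotes inhibition.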
# Potency is read from the fitted curve at half-maximal effect.
row,SMILES,Potency
1,O=C(O)c1ccccc1-c1ccc(/C=C2\SC(=O)N(c3ccccc3)C2=O)o1,"inconclusive: 23.1 µM [activator, partial curve]"
2,CCn1c(SCC(=O)Nc2nc3ccc(OC)cc3s2)nc2c1c(=O)n(C)c(=O)n2C,active: 13 µM
3,O=C(CSc1nc(C2CCCCC2)nc2ccccc12)N1CCCC1,inactive
4,COc1cc(C(=O)Oc2cc(N)n(S(=O)(=O)c3ccc(F)cc3)n2)cc(OC)c1OC,"inconclusive: 29.1 µM [activator, partial curve, poor fit]"
5,COC(=O)N/N=C(\C)c1ccc(-n2ccnc2)cc1,"inconclusive: 23.1 µM [activator, partial curve]"
6,COc1ccc([C@H]2CC(=O)C=C(c3cc(C)ccc3F)C2)cc1,inactive
7,CN(C)c1ccc(-c2sc(Nc3ccccc3)n[n+]2-c2ccc(F)cc2)cc1,"inconclusive: 1.16 µM [activator, single point]"
8,O=[N+]([O-])c1ccc(O)c(-c2nc(-c3ccccc3)c(-c3cccs3)[nH]2)c1,"inconclusive: 0.731 µM [inhibitor, full curve]"
9,Cc1ccc(S(=O)(=O)N2CCN(C(=O)COC(=O)C3CC3C)CC2)c(C)c1 (centres undefined),inactive
10,O=[N+]([O-])c1ccc(-c2c(-c3ccccc3)ncc3ccc(F)cc23)cc1,"inconclusive: 23.1 µM [activator, single point]"
11,Cc1cccc(C)c1NC(=O)c1cccc2c1-c1ccccc1C2=O,inactive
12,CCC(C(=O)NCCCN1CCOCC1)n1c2ccccc2c2nc(=O)cc(C)n21 (centres undefined),"inconclusive: 29.1 µM [activator, partial curve, poor fit]"
13,CCC(C)(C)n1nnnc1CN(Cc1ccc(Cl)cc1)Cc1ccco1,"inconclusive: 13 µM [inhibitor, partial curve, poor fit]"
14,O=C(CNC(c1ccccc1)c1ccccc1)Nc1cc([N+](=O)[O-])ccc1Cl,inactive
15,COC(CNC(=O)c1ccc2c(=O)n(Cc3ccc4c(c3)OCO4)c(=S)[nH]c2c1)OC,"inconclusive: 29.1 µM [activator, single point]"
16,COc1ccc(/C=C/C(=O)c2ccc(OC)cc2OC)c(OC)c1,"inconclusive: 23.1 µM [inhibitor, single point]"
17,CC(C)C(=O)N1CCN(c2ccccc2NC(=O)c2ccc([N+](=O)[O-])o2)CC1,"inconclusive: 9.2 µM [inhibitor, partial curve]"
18,Cc1cc(Nc2ccccc2)nn1C(=O)c1ccccc1,"inconclusive: 23.1 µM [inhibitor, partial curve, poor fit]"
19,CC1(O)c2ccccc2C(=O)N1CCc1ccccc1F (centres undefined),"inconclusive: 11.6 µM [activator, partial curve]"
20,Cc1ccc(S(=O)(=O)N(Cc2ccc([N+](=O)[O-])cc2)C(=O)N2CCN(C)CC2)cc1,inactive
21,Cc1cc(SCC#N)n2nc(C)c(-c3ccc(Cl)cc3)c2n1,inactive
22,CCOC(=O)c1c(NC(=O)c2ccn(CC)n2)sc2c1CCC2,"inconclusive: 20.6 µM [inhibitor, partial curve, poor fit]"
23,CC1CCCCN1C(=S)NC(=O)c1ccco1 (centres undefined),"inconclusive: 18.3 µM [activator, partial curve, poor fit]"

# A section from the list above, for reference:
row,SMILES,Potency
3,O=C(CSc1nc(C2CCCCC2)nc2ccccc12)N1CCCC1,inactive
4,COc1cc(C(=O)Oc2cc(N)n(S(=O)(=O)c3ccc(F)cc3)n2)cc(OC)c1OC,"inconclusive: 29.1 µM [activator, partial curve, poor fit]"
5,COC(=O)N/N=C(\C)c1ccc(-n2ccnc2)cc1,"inconclusive: 23.1 µM [activator, partial curve]"
6,COc1ccc([C@H]2CC(=O)C=C(c3cc(C)ccc3F)C2)cc1,inactive
7,CN(C)c1ccc(-c2sc(Nc3ccccc3)n[n+]2-c2ccc(F)cc2)cc1,"inconclusive: 1.16 µM [activator, single point]"
8,O=[N+]([O-])c1ccc(O)c(-c2nc(-c3ccccc3)c(-c3cccs3)[nH]2)c1,"inconclusive: 0.731 µM [inhibitor, full curve]"
9,Cc1ccc(S(=O)(=O)N2CCN(C(=O)COC(=O)C3CC3C)CC2)c(C)c1 (centres undefined),inactive
10,O=[N+]([O-])c1ccc(-c2c(-c3ccccc3)ncc3ccc(F)cc23)cc1,"inconclusive: 23.1 µM [activator, single point]"
11,Cc1cccc(C)c1NC(=O)c1cccc2c1-c1ccccc1C2=O,inactive
12,CCC(C(=O)NCCCN1CCOCC1)n1c2ccccc2c2nc(=O)cc(C)n21 (centres undefined),"inconclusive: 29.1 µM [activator, partial curve, poor fit]"
13,CCC(C)(C)n1nnnc1CN(Cc1ccc(Cl)cc1)Cc1ccco1,"inconclusive: 13 µM [inhibitor, partial curve, poor fit]"
14,O=C(CNC(c1ccccc1)c1ccccc1)Nc1cc([N+](=O)[O-])ccc1Cl,inactive
15,COC(CNC(=O)c1ccc2c(=O)n(Cc3ccc4c(c3)OCO4)c(=S)[nH]c2c1)OC,"inconclusive: 29.1 µM [activator, single point]"
16,COc1ccc(/C=C/C(=O)c2ccc(OC)cc2OC)c(OC)c1,"inconclusive: 23.1 µM [inhibitor, single point]"
17,CC(C)C(=O)N1CCN(c2ccccc2NC(=O)c2ccc([N+](=O)[O-])o2)CC1,"inconclusive: 9.2 µM [inhibitor, partial curve]"
18,Cc1cc(Nc2ccccc2)nn1C(=O)c1ccccc1,"inconclusive: 23.1 µM [inhibitor, partial curve, poor fit]"
19,CC1(O)c2ccccc2C(=O)N1CCc1ccccc1F (centres undefined),"inconclusive: 11.6 µM [activator, partial curve]"
20,Cc1ccc(S(=O)(=O)N(Cc2ccc([N+](=O)[O-])cc2)C(=O)N2CCN(C)CC2)cc1,inactive
21,Cc1cc(SCC#N)n2nc(C)c(-c3ccc(Cl)cc3)c2n1,inactive
22,CCOC(=O)c1c(NC(=O)c2ccn(CC)n2)sc2c1CCC2,"inconclusive: 20.6 µM [inhibitor, partial curve, poor fit]"

# Next part.

row,SMILES,Potency
1,CCOc1ccc(N2Cc3ncccc3C2=O)cc1,"inconclusive: 16.4 µM [activator, partial curve]"
2,O=C(Oc1ccc(Cl)cc1)N1CCCCC1,"inconclusive: 18.4 µM [activator, partial curve]"
3,O=C(c1ccc(Br)cc1)c1cc([N+](=O)[O-])ccc1N1CCOCC1,"inconclusive: 2.59 µM [inhibitor, full curve, poor fit]"
4,O=c1[nH]c2ccc(NCc3ccc(F)cc3)cc2[nH]1,"inconclusive: 10 µM [inhibitor, partial curve, poor fit]"
5,COc1ccccc1C(=O)Nc1cc(Cl)ccc1O,"inconclusive: 6.51 µM [inhibitor, full curve]"
6,COc1cccc(CC2(CO)CCCN(Cc3ccc(C)s3)C2)c1 (centres undefined),inactive
7,CC(=O)Nc1ccccc1C(=O)C(=O)Nc1cccc(C(=O)NCc2ccc(C)cc2)c1,"inconclusive: 20.6 µM [inhibitor, partial curve]"
8,Cc1cc(C(=O)CN2C(=O)c3ccccc3S2(=O)=O)c(C)n1C(C)C,"inconclusive: 1.83 µM [activator, partial curve]"
9,c1ccc(CCCCN2C(Nc3ccccc3)=NC[C@@H]2Cc2ccccc2)cc1,inactive
10,CC(C)Cc1nnc(NC(=O)c2cc3c(s2)CCC3)s1,"inconclusive: 3.26 µM [activator, full curve]"
11,Cn1c(SCC(=O)NC2CCCC2)nnc1-c1ccco1,inactive
12,COc1ccc(/C=C2\SC(=N)N(c3ccc(F)cc3)C2=O)cc1OC,"inconclusive: 20.6 µM [inhibitor, single point]"
13,C=CCn1c(SCC(=O)Nc2cccnc2Cl)nnc1-c1ccc(C(C)(C)C)cc1,"inconclusive: 29.1 µM [inhibitor, single point]"
14,CCOC(=O)c1c(NC(=S)NNS(=O)(=O)c2ccc(Br)cc2)sc2c1CCCCC2,"inconclusive: 25.9 µM [inhibitor, single point]"
15,COc1cc2c(cc1NC(=O)COC(=O)C1CC(=O)N(Cc3ccco3)C1)oc1ccccc12 (centres undefined),"inconclusive: 23.1 µM [activator, partial curve]"
16,Cc1ccc(S(=O)(=O)Nc2ccccn2)cc1[N+](=O)[O-],inactive
17,CCOC(=O)Cn1c(=NC(=O)c2cccs2)sc2cc(C(=O)OC)ccc21,"inconclusive: 5.8 µM [activator, partial curve]"
18,N#Cc1ccc(OCC(O)CN2CCN(C(c3ccccc3)c3ccccc3)CC2)cc1 (centres undefined),inactive
19,CN(CCNC(=O)c1cc2c(-c3ccccc3F)nn(C)c2s1)C1CCCCC1,inactive
20,OC1CCN(c2ncnc3c2nnn3Cc2c(F)cccc2Cl)CC1,"inconclusive: 20.6 µM [inhibitor, single point]"
21,OCCN(CCO)c1nc(N2CCCCC2)c2nc(N(CCO)CCO)nc(N3CCCCC3)c2n1,active: 0.461 µM
22,COC(=O)c1c(NC(=O)C(C)(C)C)csc1C,"inconclusive: 0.651 µM [inhibitor, single point]"
23,CC(NC(=O)c1ccccc1NC(=O)CN1CCN(c2ccccc2O)CC1)c1ccccc1 (centres undefined),active: 2.31 µM

row,SMILES,Potency
1,COC(=O)c1cccc(NC(=O)CCN2C(=O)C3CC=CCC3C2=O)c1 (centres undefined),inactive
2,CCN(CC)C(=O)COc1ccc(/C(C)=N/Nc2ncc(Cl)cc2Cl)cc1,inactive
3,COc1ccccc1/C=C/C=N/n1c(-c2ccc(C)cc2)n[nH]c1=S,inactive
4,N#Cc1ccc(-c2ccc(OCC(=O)NCCc3ccccc3)cc2)cc1,inactive
5,O=c1cc(-c2ccsc2)oc2ccc(-c3ccc4cc[nH]c4c3)cc12,"inconclusive: 2.31 µM [activator, full curve]"
6,O=C(CCCN1C(=O)C2CC=CCC2C1=O)Nc1ccccc1Cl (centres undefined),"inconclusive: 0.92 µM [inhibitor, full curve]"
7,O=C(/C=C/NCc1cccnc1)c1ccc(-c2ccccc2)cc1,"inconclusive: 11.2 µM [activator, partial curve, poor fit]"
8,COCCCNC(=O)Cn1cnc(C(=O)Nc2ccc(C)c(C)c2)n1,"inconclusive: 29.1 µM [activator, single point]"
9,COc1ccc(NC(=O)CN2CCC(NC(=O)c3ccc(OC)cc3)CC2)cc1,inactive
10,COc1ccc(/C=C/C(=O)c2ccc(O)cc2)cc1COc1ccc(F)cc1,"inconclusive: 16.4 µM [inhibitor, single point]"
11,COc1ccc(-c2cc(C(=O)NCCCN3CCCC3=O)c3ccccc3n2)cc1,"inconclusive: 29.1 µM [inhibitor, single point]"
12,CCn1ncc(Br)c1C(=O)Nc1nccs1,inactive
13,CCCCOn1c(C)c(C(C)=O)c2c3no[n+]([O-])c3ccc21,"inconclusive: 16.4 µM [inhibitor, single point]"
14,CC(=O)Nc1ccc(N2C(=O)C3C4CC(=O)C(c5ccccc54)C3C2=O)cc1 (centres undefined),"inconclusive: 29.1 µM [activator, partial curve, poor fit]"
15,Nc1cc2nc[nH]c2cc1N,"inconclusive: 11.6 µM [activator, partial curve]"
16,CCOC(=O)NNC(=O)NCCCCCCNC(=O)NNC(=O)OCC,inactive
17,Cc1ccc(CCNC(=O)C2CCCN(S(=O)(=O)c3c(C)noc3C)C2)cc1 (centres undefined),"inconclusive: 20.6 µM [inhibitor, partial curve]"
18,COc1ccc(C(=O)Nc2ccc(-c3n[nH]c(=S)o3)cc2)cc1OC,inactive
19,O=C(NNC(=O)c1ccccc1O)c1ccc(S(=O)(=O)Nc2ccccc2F)cc1,"inconclusive: 18.3 µM [inhibitor, single point]"
20,Cc1cc(NS(=O)(=O)c2ccc(NC(=O)c3ccc([N+](=O)[O-])s3)cc2)nc(C)n1,"inconclusive: 23.1 µM [inhibitor, single point]"
21,Cc1ccc(N=C2NC(=O)/C(=C\c3ccco3)S2)cc1,"inconclusive: 20.6 µM [activator, partial curve]"
22,O=C(Cc1ccc(S(=O)(=O)N2CCOCC2)s1)Nc1ccc(S(=O)(=O)N2CCCCC2)cc1,"inconclusive: 0.231 µM [inhibitor, single point]"
23,CC(C)CCNC(=O)c1ccc2c(c1)ncn2C1CCCC1,"inconclusive: 23.1 µM [activator, partial curve]"
